Measured data: PubChem BioAssay AID686937 (Drosophila RNAi Screening Center, 2013)
Assay: 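Genes in the fly needed for secretion of protein constitutively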 (primary screen). Cells: Drosophila S2 cells expressing secreted horseradish peroxidase. Reagents: long dsRNA against Drosophila genes. Timing: about 5.5 days (5 days dsRNA, then 12 h reporter induction). Treatment: reporter expression induced after 5 days of dsRNA, read 12 h later; inducer not stated. Measurement: 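Chemiluminescent measurement of peroxidase in the medium 12 h after reporter induction, following 5 days of dsRNA, given as a z-score per plate; higher means more secretion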. Direction: z-score: higher = more reporter secreted into medium.
In all, the deposit lists about 23,000 reagents; shown is a random part of those that have a named target and a result. 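Reduced-secretion tags in replicate 1 do not always agree with the z-scores; no criterion for assigning the tags was given.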 Names joined by + are all predicted targets of the reagent. Not all columns of the deposit are shown. Reagent sequences are not shown. The record does not give: the amount of reagent.

no.	gene	amplicon	z-score, replicate 1
1	CG5828	DRSC02900	0.81
2	pb	DRSC12409	0.6
3	pb	DRSC12629	0.12
4	CG42500	DRSC14822	0.39
5	CG33966	DRSC08256	0.58
6	Nup37	DRSC14419	0.2
7	CG5455	DRSC15805	0.2
8	fne	DRSC20332	-1.08
9	fne	DRSC22418	1.24
10	CG8249	DRSC07125	0.45
11	CG1637	DRSC18865	0.23
12	CG1637	DRSC19748	0.29
13	CG1637	DRSC19749	0.27
14	eEF1alpha1	DRSC07421	-2.52
15	IleRS	DRSC11667	-0.54
16	Hs6st	DRSC14348	0.13
17	Hs6st	DRSC15182	0.57
18	Hs6st	DRSC15581	-0.48
19	Hs6st	DRSC21732	-0.64
20	CG6023	DRSC19970	0.54
21	Mi-2	DRSC11222	-0.06
22	CG11885	DRSC00329	0.71
23	CG14711 + Zaf1	DRSC14934	-0.05
24	CG6262	DRSC06971	-0.4
25	dally	DRSC08954	0.23
26	dally	DRSC11338	0.37
27	EndoU	DRSC15472	0.47
28	CG30089	DRSC06126	0.48
29	CG30089	DRSC06127	-6.32
30	CG30089	DRSC06267	0.51
31	CG30089	DRSC06268	0.72
32	CG30089	DRSC21694	1.13
33	miple1	DRSC08722	0.56
34	CG33631	DRSC12763	0.2
35	CG32376	DRSC22754	-0.11
36	CG17732	DRSC10283	0.23
37	sav	DRSC14681	0.32
38	sav	DRSC14682	0.42
39	mRpL54	DRSC04545	0.15
40	luna	DRSC05253	0.8
41	luna	DRSC06663	-2.92
42	luna	DRSC07336	0.23
43	PNKP	DRSC16512	0.43
44	Syx4	DRSC18586	0.14

Continued, starting with the last 5 of the part before.
no.	gene	amplicon	z-score, replicate 1
40	luna	DRSC05253	0.8
41	luna	DRSC06663	-2.92
42	luna	DRSC07336	0.23
43	PNKP	DRSC16512	0.43
44	Syx4	DRSC18586	0.14
45	CG3483	DRSC04371	0.08
46	Orc2	DRSC16776	0.21
47	betaNACtes1	DRSC19534	0.42
48	CG31198	DRSC15891	0.19
49	Pih1D1	DRSC02897	0.38
50	CG34187 (retired record) + Trpm	DRSC05543	0.38
51	CG17929	DRSC15291	0.27
52	CAH15	DRSC04534	0.36
53	CG13545	DRSC04187	0.12
54	CG17027	DRSC10238	0.41
55	PH4alphaPV	DRSC22400	0.55
56	CG5399	DRSC15791	0.66
57	CG1324	DRSC20496	-0.25
58	CG5969	DRSC11789	-0.21
59	CG14304	DRSC14783	0.18
60	PolE4	DRSC04105	0.28
61	t-Grip91	DRSC01506	0.42
62	CG12237	DRSC19449	-3.48
63	CG12237	DRSC22256	-0.14
64	CG9727	DRSC12585	0.47
65	CG13639	DRSC14638	0.39
66	scpr-A + scpr-C + scpr-B	DRSC15715	0.38
67	CG3626	DRSC18318	0.18
68	CG31437	DRSC13711	0.72
69	lncRNA:CR32160	DRSC22904	-0.66
70	CG6696	DRSC20004	-0.25
71	Shal	DRSC09625	-1.96
72	Shal	DRSC11283	0.09
73	Npc1a	DRSC03378	-0.13
74	Ptp99A	DRSC13933	0.54
75	Ptp99A	DRSC13939	0.62
76	Ptp99A	DRSC14319	0.26
77	Ptp99A	DRSC14320	0.12
78	Ptp99A	DRSC16803	0.31
79	Ptp99A	DRSC22125	0
80	Ptp99A	DRSC22477	0.65
81	CG2794	DRSC00534	0.4
82	CG5381	DRSC02852	0.61
